Where a SMILES comes first, the peptide text is derived from it. The star is where a group is joined. Palmitoyl = CCCCCCCCCCCCCCCC(=O)*
Test system: human keratinocytes (HaCaT)
Assay: MTT assay, cytotoxicity
Type: cell-based
Procedure: To evaluate the cytotoxicity of the test peptides (IC50), the classic MTT assay on 96-well plates was performed for human keratinocytes (HaCaT) which were acquired from the ATCC. The assay was based on colorimetric determination of the cell metabolic activity where the color intensity reflected the number of live cells that could be measured spectrophotometrically. The cell line was cultured in a Dulbecco’s modified Eagle Medium (Invitrogen) supplemented with 10% fetal bovine serum (v/v), 100 units/mL of penicillin, 100 μg/mL of streptomycin, and 2 mM L-glutamine and was kept at 37 °C in a humidified 5% CO2 incubator. Briefly, a day after plating of 500 cells per well, a series of concentrations (0.5–500 μg/mL) of the test compounds were applied. DMSO was added to the control cells at a final concentration of 1.0% (v/v), which was related to the maximum concentration of the solvent compounds used in the experiment. After 24 h of incubation at 37 °C (humidified 5% CO2 incubator) with the peptides, a medium containing 1 mg/mL of MTT was added to the wells up to a final concentration of 0.5 mg/mL. Subsequently, the plates were incubated at 37 °C for 4 h. Then, the medium was aspirated, and the formazan product was solubilized with DMSO. The background absorbance at 630 nm was subtracted from that at 570 nm for each well (Epoch, BioTek Instruments, Winooski, VT, USA). Six replicates were conducted for each concentration. All experiments were repeated at least twice and the resulting IC50 values were calculated with a GraFit 7 software (v. 7.0, Erithacus, Berkley, CA, USA).
The selectivity indexes were calculated for all the strains as IC50/MIC. According to IC50, in most cases, glycosylation caused only a slight decrease in toxicity. However, in contrast with SI calculated for HC50, the differences between USCLs and gUSCLs are not so distinct. […] Moreover, toxicity of USCLs and gUSCLs is high and exceeds their antimicrobial activity. The lipopetides were not selective against Gram-negative strains (K. pneumoniae, A. baumannii, P. aeruginosa, K. aerogenes) over human cells. A few USCLs were selective (SI > 1) against E. faecium and S. aureus with SI up to 1.87; and some gUSCLs were selective against E. faecium but not against S. aureus, with SI between 0.63 and 1.73. […] In this case, SI of gUSCLs was noticeably […] than that of corresponding parent USCLs (2.07, 1.99, 2.67 vs. 2.53, 2.36, 3.46, respectively). Selectivity indexes were plotted against adjusted retention time (Figures S15–S21). A moderate linear correlation was found in USCLs and K. pneumoniae, C. glabrata, and gUSCLs and K. pneumoniae, K. aerogenes (R^2 between 0.6064 and 0.6481). A relatively high linear correlation was obtained for USCLs and K. aerogenes (R^2 of 0.8214) and also for gUSCLs and C. glabrata (R^2 of 0.9223).

SMILES | Selectivity Index (SI), IC50/MIC (A. baumannii) | Selectivity Index (SI), IC50/MIC (C. glabrata) | Selectivity Index (SI), IC50/MIC (E. faecium) | Selectivity Index (SI), IC50/MIC (K. aerogenes) | Selectivity Index (SI), IC50/MIC (K. pneumoniae) | Selectivity Index (SI), IC50/MIC (P. aeruginosa) | Selectivity Index (SI), IC50/MIC (S. aureus)
CCCCCCCCCCCCCCCC(=O)N[C@@H](CO)C(=O)N[C@@H](CCCNC(=N)N)C(=O)N[C@@H](CCCNC(=N)N)C(N)=O [Peptide 4, C16-SRR-NH2] (Palmitoyl-Ser-Arg-Arg-NH2) | 0.13 | 1.01 | 0.50 | 0.25 | 0.01 | 0.25 | 0.50
CCCCCCCCCCCCCCCC(=O)N[C@@H](CCCNC(=N)N)C(=O)N[C@@H](CO)C(=O)N[C@@H](CCCNC(=N)N)C(N)=O [Peptide 5, C16-RSR-NH2] (Palmitoyl-Arg-Ser-Arg-NH2) | 0.18 | 0.72 | 0.72 | 0.18 | 0.09 | 0.09 | 0.72

Source: paper PMC9855884, “Glycosylated Lipopeptides—Synthesis and Evaluation of Antimicrobial Activity and Cytotoxicity” (Biomolecules, 2023)
